The other results are listed elsewhere or left out.
Molecular target: T1, OsSMF1 (Oryza sativa, UniProt Q6ZLB0 1-436)
T1 sequence: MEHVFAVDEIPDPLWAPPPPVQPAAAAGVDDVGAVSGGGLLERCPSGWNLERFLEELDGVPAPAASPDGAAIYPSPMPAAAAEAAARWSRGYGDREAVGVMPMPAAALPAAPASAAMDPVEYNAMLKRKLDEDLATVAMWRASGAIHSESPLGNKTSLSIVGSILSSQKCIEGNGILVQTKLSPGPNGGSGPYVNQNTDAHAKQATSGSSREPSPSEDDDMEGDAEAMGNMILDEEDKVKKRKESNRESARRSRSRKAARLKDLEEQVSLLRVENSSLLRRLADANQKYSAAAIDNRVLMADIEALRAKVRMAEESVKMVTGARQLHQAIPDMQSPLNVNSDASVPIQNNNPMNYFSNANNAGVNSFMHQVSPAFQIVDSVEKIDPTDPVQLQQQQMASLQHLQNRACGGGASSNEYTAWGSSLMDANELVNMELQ
Experiment: protein-binding microarray (RPBM); PBS, 2% BSA, 51.3 ng/ul salmon testes DNA, 50 uM zinc acetate, 200 nM TF, 25 C, 1 h; high values mean tight binding
Conditions: protein: recombinant; tags: N-terminal polyhistidine and DsRed monomer fusion (pET32a); chain copies: 2; label: CyDye5-dUTP incorporated in the synthesized complementary strand; 3' TTTTT single-stranded linker to array surface; dsDNA, one strand shown
In short: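 The binding signal for each feature is its fluorescence intensity in arbitrary units. An Axon 4000B scanner was used to read a custom Agilent array that had been made double-stranded with Cy5-dUTP primer extension, blocked with 2% BSA, incubated at 25 °C for 1 h with 200 nM protein in PBS, 2% BSA, salmon testes DNA and 50 µM zinc acetate, and washed. The protein was an N-terminal polyhistidine–DsRed transcription factor fusion from E. coli BL21-CodonPlus, purified on Ni–NTA.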

Sequence	binding signal
TGCCCGCGAAATTTGACCGTTGCTGCGCCACGTCACGCTCCGGAGTCACCTAGTGCAG	30800 fluorescence intensity (a.u.)
ATTCGCAAAGGAAACGTGCCGCATGCATGCCAAAGCCATCCGGAGTCACCTAGTGCAG	3620 fluorescence intensity (a.u.)
AATCCTGGATACGGTAGATCACTGGGAGGCGTAGACGAAGCGGAGTCACCTAGTGCAG	3450 fluorescence intensity (a.u.)
AGGGGATTAATCTGGCTGGAGTGCACATGACGCTGCACATCGGAGTCACCTAGTGCAG	4590 fluorescence intensity (a.u.)
GATATCTGCATTATTCTGTGATGCAGTTTTGGTTGGCTTGCGGAGTCACCTAGTGCAG	30200 fluorescence intensity (a.u.)
ACTATCAAGTTCGGATTAACCGAACCAATACAACCACTCACGGAGTCACCTAGTGCAG	21900 fluorescence intensity (a.u.)
TAGCATAGCCAACTGCTGACTCCAAATTATCTATAGTCAACGGAGTCACCTAGTGCAG	3850 fluorescence intensity (a.u.)
ATCGCCACCTCTTTTGTTGCCAAAACAAAGCTTTTGCCCACGGAGTCACCTAGTGCAG	3550 fluorescence intensity (a.u.)
CACCGCCCATGGCCAACAACGTCATGAGGCGCCATGGTGGCGGAGTCACCTAGTGCAG	4060 fluorescence intensity (a.u.)
ATCGCACGTTGACTCAGCCGCCACATCGGATAAATCGGGTCGGAGTCACCTAGTGCAG	15700 fluorescence intensity (a.u.)
GCGCACGGTGCCACGACGGCAGCCCAAGACCTGAGTGCCCCGGAGTCACCTAGTGCAG	5710 fluorescence intensity (a.u.)
GAGATTTGTTTGATGTATCAGGGTGTCACGTTGTCATGTTCGGAGTCACCTAGTGCAG	4970 fluorescence intensity (a.u.)
TCTCTGATTCTTTCTTGCTGACAAACACAATCCATCAAAGCGGAGTCACCTAGTGCAG	3520 fluorescence intensity (a.u.)
CCCTCGCCCAGACGCCACCGCCGCAACGCGTTGCTGCGTGCGGAGTCACCTAGTGCAG	3350 fluorescence intensity (a.u.)
TTCGTCCCCACGTGGTTTTCTGCCCGACTACTCCTACAGCCGGAGTCACCTAGTGCAG	4490 fluorescence intensity (a.u.)
ACATCCTACTCATGACACACTCATGCATGCCACCTCATCCCGGAGTCACCTAGTGCAG	10800 fluorescence intensity (a.u.)
AACAAAAGGGAAGGAGTAGGCCGGAAACGTCCTACGGAAACGGAGTCACCTAGTGCAG	35400 fluorescence intensity (a.u.)
CGCTAATCGCGGTGTTAATCCGGCACTAATCGCAATCGCACGGAGTCACCTAGTGCAG	3250 fluorescence intensity (a.u.)
TCAAATCAAATTGCCACGTAAGCGCCACGTCACTGCCACACGGAGTCACCTAGTGCAG	35200 fluorescence intensity (a.u.)
ACCCGTCGACGTACCTTAGATCACACCCCTCATCATCACTCGGAGTCACCTAGTGCAG	3330 fluorescence intensity (a.u.)
TCAGCTGGTATTAACACACGATGTGTCTCTTTTACTGCCACGGAGTCACCTAGTGCAG	3830 fluorescence intensity (a.u.)

Sequence	binding signal
GCTGGCCCATCTCCTTGCCCACCCATGGGCCTGAAAGCCGCGGAGTCACCTAGTGCAG	49900 fluorescence intensity (a.u.)
CGATTTTATCATTTATCATTCATCAGTCACACGACCTTCACGGAGTCACCTAGTGCAG	3480 fluorescence intensity (a.u.)
ATCTCAAACCGGGCATATGAACCCTATGACTAATGTGATTCGGAGTCACCTAGTGCAG	3550 fluorescence intensity (a.u.)
CAAACACAGCAGATAGATAATACAGGGCCCGCGACGTGGGCGGAGTCACCTAGTGCAG	3180 fluorescence intensity (a.u.)
CGCCAATAGCTCGCCGCCGTCGAAACCCAAAATCTTCTCTCGGAGTCACCTAGTGCAG	3420 fluorescence intensity (a.u.)
GAGTGTAGGACTTCAGTCCTATGTAATTTTCTTCCACGAGCGGAGTCACCTAGTGCAG	3220 fluorescence intensity (a.u.)
CCCAACGCCGGGCAGGACCCCAGCTACGTGGCAGCGCTGGCGGAGTCACCTAGTGCAG	8800 fluorescence intensity (a.u.)
TCGGCTTAAATCCACATAGCCACGAGAGATGGTCCGCTGTCGGAGTCACCTAGTGCAG	3140 fluorescence intensity (a.u.)
AACGTGCCGAGGTGGCAGCCCAAGCACGACATGGCTGTTACGGAGTCACCTAGTGCAG	3360 fluorescence intensity (a.u.)
GCTGTATCAAAAGAAGTCGTACGTGGACATATGTGTGAGCCGGAGTCACCTAGTGCAG	5260 fluorescence intensity (a.u.)
TTTCTTCGACACGTCGTCTAGTGCTGCTAGCTGTGACCTCCGGAGTCACCTAGTGCAG	4540 fluorescence intensity (a.u.)
TTAACTCGTACAGTACAGGGTAATGAACTGTACCGGCGTGCGGAGTCACCTAGTGCAG	25300 fluorescence intensity (a.u.)
TTCAAATGCCACCTAAACGCCACGTCAACCCCATAGACTACGGAGTCACCTAGTGCAG	15600 fluorescence intensity (a.u.)
TAAGCCTTAAGGTCGTCGCACATGCGTGATTTATTTAACTCGGAGTCACCTAGTGCAG	4220 fluorescence intensity (a.u.)
TCTTATCTGCATCCAACTGTACTCCAGCATGATCCACAACCGGAGTCACCTAGTGCAG	3420 fluorescence intensity (a.u.)
CTTGATAATTAGTGGATGATGATGTGTCATCTTTACATGTCGGAGTCACCTAGTGCAG	23800 fluorescence intensity (a.u.)
CCGAGTCTTGCTTGCCAAGCGAGTGCGTGTAGAGTGGTTTCGGAGTCACCTAGTGCAG	3360 fluorescence intensity (a.u.)
ACAGGCTGAGTTGGCTTGTGGTGCTTCCCAGCCTTCACTGCGGAGTCACCTAGTGCAG	3320 fluorescence intensity (a.u.)
TTTCTAGACAATTTGTCTCTTGCGGTGACACCTAGTTAGTCGGAGTCACCTAGTGCAG	4880 fluorescence intensity (a.u.)
GCCCAGCAAATGCCGTACGTGGCCGCATTGCCGGCGGGCGCGGAGTCACCTAGTGCAG	3760 fluorescence intensity (a.u.)
CCGCGTTCGTGCCGACGCGTGTGAAACGGCCGAGGTCGTGCGGAGTCACCTAGTGCAG	3680 fluorescence intensity (a.u.)

Laid out differently: entries from further up.
Sequence | binding signal
GAGTGTAGGACTTCAGTCCTATGTAATTTTCTTCCACGAGCGGAGTCACCTAGTGCAG | 3220 fluorescence intensity (a.u.)
CCCAACGCCGGGCAGGACCCCAGCTACGTGGCAGCGCTGGCGGAGTCACCTAGTGCAG | 8800 fluorescence intensity (a.u.)
TCGGCTTAAATCCACATAGCCACGAGAGATGGTCCGCTGTCGGAGTCACCTAGTGCAG | 3140 fluorescence intensity (a.u.)
AACGTGCCGAGGTGGCAGCCCAAGCACGACATGGCTGTTACGGAGTCACCTAGTGCAG | 3360 fluorescence intensity (a.u.)
GCTGTATCAAAAGAAGTCGTACGTGGACATATGTGTGAGCCGGAGTCACCTAGTGCAG | 5260 fluorescence intensity (a.u.)
TTTCTTCGACACGTCGTCTAGTGCTGCTAGCTGTGACCTCCGGAGTCACCTAGTGCAG | 4540 fluorescence intensity (a.u.)
TTAACTCGTACAGTACAGGGTAATGAACTGTACCGGCGTGCGGAGTCACCTAGTGCAG | 25300 fluorescence intensity (a.u.)
TTCAAATGCCACCTAAACGCCACGTCAACCCCATAGACTACGGAGTCACCTAGTGCAG | 15600 fluorescence intensity (a.u.)
TAAGCCTTAAGGTCGTCGCACATGCGTGATTTATTTAACTCGGAGTCACCTAGTGCAG | 4220 fluorescence intensity (a.u.)
TCTTATCTGCATCCAACTGTACTCCAGCATGATCCACAACCGGAGTCACCTAGTGCAG | 3420 fluorescence intensity (a.u.)
CTTGATAATTAGTGGATGATGATGTGTCATCTTTACATGTCGGAGTCACCTAGTGCAG | 23800 fluorescence intensity (a.u.)
CCGAGTCTTGCTTGCCAAGCGAGTGCGTGTAGAGTGGTTTCGGAGTCACCTAGTGCAG | 3360 fluorescence intensity (a.u.)

From article PMC7819943, “Rice protein-binding microarrays: a tool to detect cis-acting elements near promoter regions in rice”
